The text below walks through data of publication PMC5945630.

Protein sequences, listed by entry. Tags and fused reporters are not part of them. Residues count along the entry.
UniProt O76061, residues 25-302: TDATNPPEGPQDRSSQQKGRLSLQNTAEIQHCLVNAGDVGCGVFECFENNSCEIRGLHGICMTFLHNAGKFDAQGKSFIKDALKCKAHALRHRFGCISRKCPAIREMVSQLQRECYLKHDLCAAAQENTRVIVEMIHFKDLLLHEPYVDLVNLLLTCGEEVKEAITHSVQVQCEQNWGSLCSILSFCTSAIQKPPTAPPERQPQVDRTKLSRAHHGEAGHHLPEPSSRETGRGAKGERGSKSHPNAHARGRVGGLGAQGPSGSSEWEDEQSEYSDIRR

No constants are given. Whether binding was seen depends on the method and setting. Binding seen in cells or lysates may run through a third protein. Some results given as binding are weak or reduced against the parent protein; the word gives no strength.

The test deals with T1, heme oxygenase 1 (human (endogenous in MSCs)) (UniProt P09601).
T1 sequence: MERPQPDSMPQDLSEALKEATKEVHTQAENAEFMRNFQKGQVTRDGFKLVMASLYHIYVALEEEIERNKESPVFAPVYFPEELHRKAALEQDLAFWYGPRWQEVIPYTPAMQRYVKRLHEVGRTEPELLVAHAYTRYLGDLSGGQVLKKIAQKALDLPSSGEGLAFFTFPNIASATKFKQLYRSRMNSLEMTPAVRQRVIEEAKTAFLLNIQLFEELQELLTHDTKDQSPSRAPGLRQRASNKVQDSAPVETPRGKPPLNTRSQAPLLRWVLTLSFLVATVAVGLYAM
Briefly: co-IP; proteins collected from human MSCs, immunoprecipitated with anti-HO-1, immunoprecipitate probed with anti-STC2; 5% input as positive control, IgG as negative control.

For the substance “Stanniocalcin-2 (from UniProt O76061 25-302)”, the binding entry is listed as “binds”.
